Data from patent US20240124418A1 (BioTheryX, Inc., priority 2020, published 2024).
Some results were stated once for a whole list of compounds, not compound by compound.

Tested on: PDE4D, in particular, PDE4D short isoform
Assay: Protein degradation assay, western blot, PDE4D in A549 cells
Assay type: cell-based
Conditions: 24 h treatment, 'as high as about' = upper value for the group
Protocol: Example B2. Protein Degradation Assay
A549 cells were grown in RPMI 1640 media supplemented with 10% fetal bovine serum, streptomycin, and penicillin. The cells were plated in 6-well plates at 300,000 cells/well in the growth media. After overnight incubation, the cells were treated with DMSO (control) or a compound at predetermined concentrations (e.g., 10 nM, 100 nM, 1 μM, 3 μM, or 10 μM) for 24 h at 37° C. under 5% CO2. Whole cell extracts were prepared using an immunoprecipitation (IP) lysis buffer. The cells were washed once in PBS, and the cell pellets were resuspended in the IP lysis buffer and incubated for 15 min on ice. Cells debris was removed by centrifugation and the cleared whole cell lysates were transferred to new tubes for further analysis.
For a western blot analysis, the whole cell protein extracts were separated on 4-12% SDS-polyacrylamide gels, transferred to nitrocellulose, and probed with primary antibodies. Membranes were subsequently washed and probed with IRDYE® secondary antibodies. The signals were detected using an ODYSSEY® Imaging System. The antibodies used in the assay included anti-PDE4B antibody; anti-PDE4D antibodies (top, bottom, and short isoform); β-actin mouse monoclonal antibody; IRDYE® 680RD goat anti-rabbit antibody; and IRDYE® 800CW goat anti-mouse antibody. The compounds provided herein are PDE4 protein degraders.

## CCOc1cc([C@@H](CS(C)(=O)=O)N2C(=O)c3cccc(NC(=O)CC4CN(Cc5ccc(OCc6scc7c6CN(C6CCC(=O)NC6=O)C7=O)cc5)CCO4)c3C2=O)ccc1OC (stereo partly drawn) [Compound A40, 2-{4-[(4-{[5-(2,6-Dioxopiperidin-3-yl)-4-oxo-4H,5H,6H-thieno[3,4-c]pyrrol-1-yl]methoxy}phenyl)methyl]morpholin-2-yl}-N-{2-[(1S)-1-(3-ethoxy-4-methoxyphenyl)-2-methanesulfonylethyl]-1,3-dioxo-2,3-dihydro-1H-isoindol-4-yl}acetamide]
  PDE4D (in particular PDE4D short isoform) degradation relative to DMSO: ≤ 95%

## CCOc1cc([C@@H](CS(C)(=O)=O)N2C(=O)c3cccc(NC(=O)CCOCCOCCNCc4ccc(OCc5scc6c5CN(C5CCC(=O)NC5=O)C6=O)cc4)c3C2=O)ccc1OC (stereo partly drawn) [Compound A41, 3-[2-(2-{[(4-{[5-(2,6-Dioxopiperidin-3-yl)-4-oxo-4H,5H,6H-thieno[3,4-c]pyrrol-1-yl]methoxy}phenyl)methyl]amino}ethoxy)ethoxy]-N-{2-[(1S)-1-(3-ethoxy-4-methoxyphenyl)-2-methanesulfonylethyl]-1,3-dioxo-2,3-dihydro-1H-isoindol-4-yl}propanamide]
  PDE4D (in particular PDE4D short isoform) degradation relative to DMSO: ≤ 95%

## CCOc1cc([C@@H](CS(C)(=O)=O)N2C(=O)c3cccc(NC(=O)CCCc4ccc(CCNCc5ccc(OCc6scc7c6CN(C6CCC(=O)NC6=O)C7=O)cc5)cc4)c3C2=O)ccc1OC (stereo partly drawn) [Compound A42, 4-[4-(2-{[(4-{[5-(2,6-Dioxopiperidin-3-yl)-4-oxo-4H,5H,6H-thieno[3,4-c]pyrrol-1-yl]methoxy}phenyl)methyl]amino}ethyl)phenyl]-N-{2-[(1S)-1-(3-ethoxy-4-methoxyphenyl)-2-methanesulfonylethyl]-1,3-dioxo-2,3-dihydro-1H-isoindol-4-yl}butanamide]
  PDE4D (in particular PDE4D short isoform) degradation relative to DMSO: ≤ 95%

## CCOc1cc([C@@H](CS(C)(=O)=O)N2C(=O)c3cccc(NC(=O)CCCCCCCCCCNCc4ccc(OCc5scc6c5CN(C5CCC(=O)NC5=O)C6=O)cc4)c3C2=O)ccc1OC (stereo partly drawn) [Compound A43, 11-{[(4-{[5-(2,6-Dioxopiperidin-3-yl)-4-oxo-4H,5H,6H-thieno[3,4-c]pyrrol-1-yl]methoxy}phenyl)methyl]amino}-N-{2-[(1S)-1-(3-ethoxy-4-methoxyphenyl)-2-methanesulfonylethyl]-1,3-dioxo-2,3-dihydro-1H-isoindol-4-yl}undecanamide]
  PDE4D (in particular PDE4D short isoform) degradation relative to DMSO: ≤ 95%

## CCOc1cc([C@@H](CS(C)(=O)=O)N2C(=O)c3cccc(NCCCCCCCCCNCc4ccc(OCc5scc6c5CN(C5CCC(=O)NC5=O)C6=O)cc4)c3C2=O)ccc1OC (stereo partly drawn) [Compound A44, 4-[(9-{[(4-{[5-(2,6-Dioxopiperidin-3-yl)-4-oxo-4H,5H,6H-thieno[3,4-c]pyrrol-1-yl]methoxy}phenyl)methyl]amino}nonyl)amino]-2-[(1S)-1-(3-ethoxy-4-methoxyphenyl)-2-methanesulfonylethyl]-2,3-dihydro-1H-isoindole-1,3-dione]
  PDE4D (in particular PDE4D short isoform) degradation relative to DMSO: ≤ 95%

## CCOc1cc([C@@H](CS(C)(=O)=O)N2C(=O)c3cccc(NC(=O)CCCCCCCCC(=O)N[C@H](C(=O)N4C[C@H](O)C[C@H]4C(=O)NCc4ccc(-c5scnc5C)cc4)C(C)(C)C)c3C2=O)ccc1OC [Compound A60, N^1-(2-((S)-1-(3-Ethoxy-4-methoxyphenyl)-2-(methylsulfonyl)ethyl)-1,3-dioxoisoindolin-4-yl)-N^10—((S)-1-((2S,4R)-4-hydroxy-2-((4-(4-methylthiazol-5-yl)benzyl)-carbamoyl)pyrrolidin-1-yl)-3,3-dimethyl-1-oxobutan-2-yl)decanediamide]
  PDE4D (in particular PDE4D short isoform) degradation relative to DMSO: ≤ 95%

## CCOc1cc([C@@H](CS(C)(=O)=O)N2C(=O)c3cc(CCCCCCCCCCCCC(=O)N[C@H](C(=O)N4C[C@H](O)C[C@H]4C(=O)NCc4ccc(-c5scnc5C)cc4)C(C)(C)C)cc(NC(C)=O)c3C2=O)ccc1OC [Compound A61, (2S,4R)-1-[(2S)-2-(13-{7-Acetamido-2-[(1S)-1-(3-ethoxy-4-methoxyphenyl)-2-methanesulfonylethyl]-1,3-dioxo-2,3-dihydro-1H-isoindol-5-yl}tridecanamido)-3,3-dimethylbutanoyl]-4-hydroxy-N-{[4-(4-methyl-1,3-thiazol-5-yl)phenyl]methyl}pyrrolidine-2-carboxamide]
  PDE4D (in particular PDE4D short isoform) degradation relative to DMSO: ≤ 95%

## CCOc1cc([C@@H](CS(C)(=O)=O)N2C(=O)c3cc(CCCCCCCCCCCCNc4cccc(NC5CCC(=O)NC5=O)c4)cc(NC(C)=O)c3C2=O)ccc1OC (stereo partly drawn) [Compound A89, N-{6-[12-({3-[(2,6-Dioxopiperidin-3-yl)amino]phenyl}amino)dodecyl]-2-[(1S)-1-(3-ethoxy-4-methoxyphenyl)-2-methanesulfonylethyl]-1,3-dioxo-2,3-dihydro-1H-isoindol-4-yl}acetamide]
  PDE4D (in particular PDE4D short isoform) degradation relative to DMSO: ≤ 95%

## O=C1CCC(N2Cc3c(cc(F)cc3C3CCN(CCCCCCCOc4cc(C(=O)Nc5c(Cl)cncc5Cl)ccc4OC(F)F)CC3)C2=O)C(=O)N1 (stereo not drawn) [Compound B1, N-(3,5-Dichloropyridin-4-yl)-4-(difluoromethoxy)-3-((7-(4-(2-(2,6-dioxopiperidin-3-yl)-6-fluoro-1-oxoisoindolin-4-yl)piperidin-1-yl)heptyl)oxy)benzamide]
  PDE4D (in particular PDE4D short isoform) degradation relative to DMSO: ≤ 95%

## O=C1CCC(N2Cc3c(C#CC4CCN(C(=O)CCCCOc5cc(C(=O)Nc6c(Cl)cncc6Cl)ccc5OC(F)F)CC4)cccc3C2=O)C(=O)N1 (stereo not drawn) [Compound B2, N-(3,5-Dichloropyridin-4-yl)-4-(difluoromethoxy)-3-((5-(4-((2-(2,6-dioxopiperidin-3-yl)-1-oxoisoindolin-4-yl)ethynyl)piperidin-1-yl)-5-oxopentyl)oxy)benzamide]
  PDE4D (in particular PDE4D short isoform) degradation relative to DMSO: ≤ 95%

## O=C1CCC(N2Cc3cc(C4CCN(CCCCCCCOc5cc(C(=O)Nc6c(Cl)cncc6Cl)ccc5OC(F)F)CC4)c(F)cc3C2=O)C(=O)N1 (stereo not drawn) [Compound B3, N-(3,5-Dichloropyridin-4-yl)-4-(difluoromethoxy)-3-((7-(4-(2-(2,6-dioxopiperidin-3-yl)-6-fluoro-1-oxoisoindolin-5-yl)piperidin-1-yl)heptyl)oxy)benzamide]
  PDE4D (in particular PDE4D short isoform) degradation relative to DMSO: ≤ 95%

## O=C1CCC(N2Cc3c(cc(F)cc3C3CCN(CCCCCCCCCOc4cc(C(=O)Nc5c(Cl)cncc5Cl)ccc4OC(F)F)CC3)C2=O)C(=O)N1 (stereo not drawn) [Compound B4, N-(3,5-Dichloropyridin-4-yl)-4-(difluoromethoxy)-3-((9-(4-(2-(2,6-dioxo-piperidin-3-yl)-6-fluoro-1-oxoisoindolin-4-yl)piperidin-1-yl)nonyl)oxy)benzamide]
  PDE4D (in particular PDE4D short isoform) degradation relative to DMSO: ≤ 95%

## O=C1CCC(N2Cc3c(cc(F)cc3C3CCN(CCCCCOc4cc(C(=O)Nc5c(Cl)cncc5Cl)ccc4OC(F)F)CC3)C2=O)C(=O)N1 (stereo not drawn) [Compound B5, N-(3,5-Dichloropyridin-4-yl)-4-(difluoromethoxy)-3-((5-(4-(2-(2,6-dioxo-piperidin-3-yl)-6-fluoro-1-oxoisoindolin-4-yl)piperidin-1-yl)pentyl)oxy)benzamide]
  PDE4D (in particular PDE4D short isoform) degradation relative to DMSO: ≤ 95%

## O=C1CCC(N2C(=O)c3cccc(NCCCCCCCOc4cc(C(=O)Nc5c(Cl)cncc5Cl)ccc4OC(F)F)c3C2=O)C(=O)N1 (stereo not drawn) [Compound B6, N-(3,5-Dichloropyridin-4-yl)-4-(difluoromethoxy)-3-((7-((2-(2,6-dioxopiperidin-3-yl)-1,3-dioxoisoindolin-4-yl)amino)heptyl)oxy)benzamide]
  PDE4D (in particular PDE4D short isoform) degradation relative to DMSO: ≤ 95%

## O=C1CCC(N2Cc3c(cc(F)cc3C3CCN(CCCCCCCCCCCCOc4cc(C(=O)Nc5c(Cl)cncc5Cl)ccc4OC(F)F)CC3)C2=O)C(=O)N1 (stereo not drawn) [Compound B7, N-(3,5-Dichloropyridin-4-yl)-4-(difluoromethoxy)-3-((12-(4-(2-(2,6-dioxo-piperidin-3-yl)-6-fluoro-1-oxoisoindolin-4-yl)piperidin-1-yl)dodecyl)oxy)benzamide]
  PDE4D (in particular PDE4D short isoform) degradation relative to DMSO: ≤ 95%

## O=C1CCC(N2C(=O)c3cccc(NCCOCCOCCOCCOc4ccc(C(=O)Nc5c(Cl)cncc5Cl)cc4OC(F)F)c3C2=O)C(=O)N1 (stereo not drawn) [Compound B8, N-(3,5-Dichloropyridin-4-yl)-3-(difluoromethoxy)-4-(2-(2-(2-(2-((2-(2,6-dioxo-piperidin-3-yl)-1,3-dioxoisoindolin-4-yl)amino)ethoxy)ethoxy)ethoxy)ethoxy)benzamide]
  PDE4D (in particular PDE4D short isoform) degradation relative to DMSO: ≤ 95%

## O=C1CCC(N2Cc3c(NCCCOCCOCCOCCOc4ccc(C(=O)Nc5c(Cl)cncc5Cl)cc4OCC4CC4)cccc3C2=O)C(=O)N1 (stereo not drawn) [Compound B9, 3-(Cyclopropylmethoxy)-N-(3,5-dichloropyridin-4-yl)-4-(2-(2-(2-(3-((2-(2,6-dioxopiperidin-3-yl)-1-oxoisoindolin-4-yl)amino)propoxy)ethoxy)ethoxy)ethoxy)benzamide]
  PDE4D (in particular PDE4D short isoform) degradation relative to DMSO: ≤ 95%

## O=C1CCC(N2Cc3c(cc(F)cc3C3CCN(CCCCCCCOc4ccc(C(=O)Nc5c(Cl)cncc5Cl)cc4OCC4CC4)CC3)C2=O)C(=O)N1 (stereo not drawn) [Compound B10, 3-(Cyclopropylmethoxy)-N-(3,5-dichloropyridin-4-yl)-4-((7-(4-(2-(2,6-dioxopiperidin-3-yl)-6-fluoro-1-oxoisoindolin-4-yl)piperidin-1-yl)heptyl)oxy)benzamide]
  PDE4D (in particular PDE4D short isoform) degradation relative to DMSO: ≤ 95%
